This is an account of results in paper PMC8732282.

Sequences of proteins named here, by UniProt entry; tags and fusion partners are left off. Residues count along the entry.
UniProt P53350: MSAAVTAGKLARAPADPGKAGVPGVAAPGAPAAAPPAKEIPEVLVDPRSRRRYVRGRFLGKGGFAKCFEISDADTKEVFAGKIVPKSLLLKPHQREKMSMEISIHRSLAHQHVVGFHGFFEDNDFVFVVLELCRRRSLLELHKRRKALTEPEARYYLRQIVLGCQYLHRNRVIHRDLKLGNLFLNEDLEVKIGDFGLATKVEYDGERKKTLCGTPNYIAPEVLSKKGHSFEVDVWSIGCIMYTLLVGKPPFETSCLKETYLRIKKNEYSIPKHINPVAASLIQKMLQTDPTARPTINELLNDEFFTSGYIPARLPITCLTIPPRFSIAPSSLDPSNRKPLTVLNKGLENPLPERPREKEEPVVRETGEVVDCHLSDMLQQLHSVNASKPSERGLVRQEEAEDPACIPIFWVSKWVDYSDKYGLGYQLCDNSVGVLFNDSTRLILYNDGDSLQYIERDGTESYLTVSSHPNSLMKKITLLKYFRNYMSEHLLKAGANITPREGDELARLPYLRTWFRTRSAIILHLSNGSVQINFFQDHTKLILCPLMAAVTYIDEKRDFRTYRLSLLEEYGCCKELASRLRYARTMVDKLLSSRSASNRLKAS
UniProt Q05397: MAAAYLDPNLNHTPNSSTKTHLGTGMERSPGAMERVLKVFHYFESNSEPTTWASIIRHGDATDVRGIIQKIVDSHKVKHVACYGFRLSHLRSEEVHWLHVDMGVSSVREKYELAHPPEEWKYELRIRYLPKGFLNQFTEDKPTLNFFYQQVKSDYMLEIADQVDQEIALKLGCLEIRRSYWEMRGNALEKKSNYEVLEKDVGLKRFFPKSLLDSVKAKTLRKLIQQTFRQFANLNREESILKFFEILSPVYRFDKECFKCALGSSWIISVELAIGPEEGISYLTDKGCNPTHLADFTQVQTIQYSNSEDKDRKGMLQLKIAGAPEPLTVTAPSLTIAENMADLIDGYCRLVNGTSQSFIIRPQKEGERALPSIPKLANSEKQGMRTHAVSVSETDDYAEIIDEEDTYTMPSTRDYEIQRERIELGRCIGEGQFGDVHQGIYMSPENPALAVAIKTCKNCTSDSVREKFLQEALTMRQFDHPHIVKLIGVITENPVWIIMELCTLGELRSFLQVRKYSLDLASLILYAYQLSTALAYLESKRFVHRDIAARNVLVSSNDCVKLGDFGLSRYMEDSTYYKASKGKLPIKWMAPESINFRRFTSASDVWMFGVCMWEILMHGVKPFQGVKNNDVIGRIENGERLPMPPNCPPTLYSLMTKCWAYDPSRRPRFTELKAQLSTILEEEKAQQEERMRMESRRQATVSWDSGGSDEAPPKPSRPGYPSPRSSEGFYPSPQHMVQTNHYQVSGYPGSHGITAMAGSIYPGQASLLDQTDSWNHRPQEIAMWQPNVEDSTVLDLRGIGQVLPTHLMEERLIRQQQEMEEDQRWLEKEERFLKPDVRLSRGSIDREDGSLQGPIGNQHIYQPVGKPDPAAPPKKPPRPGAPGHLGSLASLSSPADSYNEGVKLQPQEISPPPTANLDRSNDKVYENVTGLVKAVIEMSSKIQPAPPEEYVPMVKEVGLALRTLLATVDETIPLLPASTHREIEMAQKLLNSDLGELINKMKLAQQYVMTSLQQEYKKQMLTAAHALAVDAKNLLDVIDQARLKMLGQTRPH
UniProt P08581, residues 25-1390: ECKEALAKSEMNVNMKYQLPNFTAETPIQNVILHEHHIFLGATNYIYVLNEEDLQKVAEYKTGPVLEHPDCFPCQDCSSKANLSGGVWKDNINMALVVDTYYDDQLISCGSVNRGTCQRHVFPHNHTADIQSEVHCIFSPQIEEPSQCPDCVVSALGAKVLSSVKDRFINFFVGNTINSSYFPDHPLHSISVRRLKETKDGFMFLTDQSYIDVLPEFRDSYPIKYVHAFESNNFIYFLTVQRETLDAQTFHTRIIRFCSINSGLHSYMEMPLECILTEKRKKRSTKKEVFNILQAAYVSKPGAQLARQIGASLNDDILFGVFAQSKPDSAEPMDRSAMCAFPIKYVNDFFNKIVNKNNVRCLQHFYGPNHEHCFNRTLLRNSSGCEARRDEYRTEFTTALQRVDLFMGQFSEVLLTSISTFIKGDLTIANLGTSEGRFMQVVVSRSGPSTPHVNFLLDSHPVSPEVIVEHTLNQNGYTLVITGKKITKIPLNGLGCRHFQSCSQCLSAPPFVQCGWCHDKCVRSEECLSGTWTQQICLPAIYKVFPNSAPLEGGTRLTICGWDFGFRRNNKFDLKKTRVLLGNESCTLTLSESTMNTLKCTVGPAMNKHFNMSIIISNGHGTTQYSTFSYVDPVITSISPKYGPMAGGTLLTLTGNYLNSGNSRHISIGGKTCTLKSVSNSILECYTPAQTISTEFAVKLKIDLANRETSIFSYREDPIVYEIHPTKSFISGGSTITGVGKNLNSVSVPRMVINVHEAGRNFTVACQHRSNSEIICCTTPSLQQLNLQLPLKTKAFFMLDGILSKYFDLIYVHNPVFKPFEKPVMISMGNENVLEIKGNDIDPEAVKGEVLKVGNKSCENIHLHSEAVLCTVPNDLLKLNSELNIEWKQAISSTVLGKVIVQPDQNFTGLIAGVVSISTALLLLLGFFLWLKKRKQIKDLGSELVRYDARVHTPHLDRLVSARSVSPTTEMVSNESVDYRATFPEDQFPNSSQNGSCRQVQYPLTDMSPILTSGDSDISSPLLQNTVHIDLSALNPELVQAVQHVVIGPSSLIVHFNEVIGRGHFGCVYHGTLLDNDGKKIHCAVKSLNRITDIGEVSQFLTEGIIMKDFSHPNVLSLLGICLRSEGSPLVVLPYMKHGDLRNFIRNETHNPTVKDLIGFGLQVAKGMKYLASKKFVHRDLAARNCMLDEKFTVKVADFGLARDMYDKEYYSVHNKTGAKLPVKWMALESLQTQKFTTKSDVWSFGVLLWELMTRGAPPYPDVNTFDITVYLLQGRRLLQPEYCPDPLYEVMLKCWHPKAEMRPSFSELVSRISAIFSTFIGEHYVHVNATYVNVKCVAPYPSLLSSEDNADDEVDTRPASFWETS
UniProt P40763: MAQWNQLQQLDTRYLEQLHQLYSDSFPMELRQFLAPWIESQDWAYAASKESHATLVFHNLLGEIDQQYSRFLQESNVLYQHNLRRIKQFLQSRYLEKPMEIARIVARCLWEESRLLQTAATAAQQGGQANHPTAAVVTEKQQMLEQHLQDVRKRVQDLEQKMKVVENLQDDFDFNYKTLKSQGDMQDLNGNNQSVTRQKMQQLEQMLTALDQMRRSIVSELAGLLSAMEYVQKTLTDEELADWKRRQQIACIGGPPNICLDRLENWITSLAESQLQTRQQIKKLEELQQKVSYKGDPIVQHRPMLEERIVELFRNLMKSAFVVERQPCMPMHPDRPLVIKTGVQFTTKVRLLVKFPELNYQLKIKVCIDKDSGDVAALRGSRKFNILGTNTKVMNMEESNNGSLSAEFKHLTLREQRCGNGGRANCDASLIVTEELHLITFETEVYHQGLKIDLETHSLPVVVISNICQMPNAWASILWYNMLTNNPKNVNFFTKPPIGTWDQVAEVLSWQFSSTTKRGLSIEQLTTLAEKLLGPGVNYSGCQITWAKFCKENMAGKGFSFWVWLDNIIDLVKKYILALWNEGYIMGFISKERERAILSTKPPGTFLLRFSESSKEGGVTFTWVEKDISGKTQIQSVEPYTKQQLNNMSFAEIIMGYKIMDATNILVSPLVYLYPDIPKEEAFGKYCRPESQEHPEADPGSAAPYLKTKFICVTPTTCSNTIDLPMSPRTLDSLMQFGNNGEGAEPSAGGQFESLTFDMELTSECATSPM
UniProt Q8N122: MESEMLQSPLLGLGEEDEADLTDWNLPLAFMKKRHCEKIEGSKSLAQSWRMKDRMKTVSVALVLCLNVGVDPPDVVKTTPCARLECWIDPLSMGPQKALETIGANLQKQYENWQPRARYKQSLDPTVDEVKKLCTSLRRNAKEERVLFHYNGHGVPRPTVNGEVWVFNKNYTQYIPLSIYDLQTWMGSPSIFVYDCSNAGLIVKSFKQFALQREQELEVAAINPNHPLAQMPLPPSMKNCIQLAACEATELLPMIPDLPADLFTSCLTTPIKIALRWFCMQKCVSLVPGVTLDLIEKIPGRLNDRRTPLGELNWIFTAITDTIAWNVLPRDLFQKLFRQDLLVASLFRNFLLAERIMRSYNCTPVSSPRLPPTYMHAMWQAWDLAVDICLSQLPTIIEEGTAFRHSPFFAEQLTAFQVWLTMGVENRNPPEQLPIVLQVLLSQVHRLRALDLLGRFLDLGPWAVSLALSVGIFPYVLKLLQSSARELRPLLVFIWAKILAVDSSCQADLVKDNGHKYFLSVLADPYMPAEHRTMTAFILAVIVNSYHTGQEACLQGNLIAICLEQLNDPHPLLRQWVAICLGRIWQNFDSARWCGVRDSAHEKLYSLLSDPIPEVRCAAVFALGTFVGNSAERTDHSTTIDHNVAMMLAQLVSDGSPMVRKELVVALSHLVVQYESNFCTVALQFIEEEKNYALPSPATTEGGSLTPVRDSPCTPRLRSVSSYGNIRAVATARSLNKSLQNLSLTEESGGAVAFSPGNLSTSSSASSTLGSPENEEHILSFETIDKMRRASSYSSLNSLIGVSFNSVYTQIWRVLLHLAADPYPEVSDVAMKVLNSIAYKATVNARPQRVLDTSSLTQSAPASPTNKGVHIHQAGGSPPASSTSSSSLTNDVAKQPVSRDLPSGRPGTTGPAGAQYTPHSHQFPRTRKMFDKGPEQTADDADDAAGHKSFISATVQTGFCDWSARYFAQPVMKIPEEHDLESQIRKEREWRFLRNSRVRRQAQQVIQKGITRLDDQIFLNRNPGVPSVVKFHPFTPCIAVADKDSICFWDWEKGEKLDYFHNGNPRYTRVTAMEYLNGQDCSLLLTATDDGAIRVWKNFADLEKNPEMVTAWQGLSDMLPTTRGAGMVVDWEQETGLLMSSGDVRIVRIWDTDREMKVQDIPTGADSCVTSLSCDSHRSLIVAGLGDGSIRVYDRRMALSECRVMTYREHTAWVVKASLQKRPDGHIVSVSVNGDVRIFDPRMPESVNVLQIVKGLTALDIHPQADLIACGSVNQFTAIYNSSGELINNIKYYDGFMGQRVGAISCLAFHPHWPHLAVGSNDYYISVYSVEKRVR

The target in assay [1] is FLAG-tagged GRB7 (growth factor receptor-bound protein 7) (UniProt Q14451). The assay can be described thus: co-IP; lysates of HCT116 (and SW480) cells expressing FLAG-GRB7 or vector control, immunoprecipitated with Flag antibody or immunoglobulin G control, blotted with the indicated antibodies.
For assay [2], the target named is polo-like kinase-1 (PLK1) (human (endogenous in HCT116 and SW480)) (UniProt P53350). The assay can be described thus: co-IP; lysates of HCT116 cells expressing GRB7 or vector control, immunoprecipitated with PLK1 antibody or immunoglobulin G control, blotted with the indicated antibodies.

Results are given in words; binding and its absence hold for the method and conditions named. Binding seen in cells or lysates may run through a third protein. Some binding calls cover weakened binding; strength is not graded here.

With “EGFR (from UniProt P00533 25-1210) (receptor)”, the binding result in assay [1] is “binds”. In the case of “FAK (from UniProt Q05397 1-1052) (enzyme)”, in assay [2], the binding result is “binds”. On to “FLAG-tagged GRB7 (growth factor receptor-bound protein 7) (from UniProt Q14451 1-532)”, for which the binding entry in assay [2] is on record as “binds”. In the case of “MET (from UniProt P08581 25-1390) (receptor)”, the binding result in assay [1] is “binds”.

As for STAT3 (from UniProt P40763 1-770), in assay [2], the binding result was “binds”. In the case of “phosphorylated PLK1 (from UniProt P53350 1-603) (enzyme)”, in assay [1], the binding result is “binds”.

As for “polo-like kinase-1 (PLK1) (from UniProt P53350 1-603) (enzyme)”, in assay [1], the binding result is on record as “binds”. For “regulatory associated protein of mTOR complex 1 (RPTOR) (from UniProt Q8N122 1-1335)”, the binding result in assay [2] and in assay [1] was “binds” throughout.
